# The list shows a part of the results.
# Assay: clearance of mutant huntingtin inclusions, primary screen, imaging, HeLa Exon1htt(103Q)mCFP, confocal imaging (AID 853);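 note: cells exposed to compound for three days before fixation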
# Settings: aggregate imaging, measured here: aggregate grain fluorescence fraction, at 1.5 µM, stronger effect = lower value
row,SMILES,fraction fluorescence in grains
1,COc1ccc(NC2CCN(CCc3ccccc3)CC2)c(OC)c1,51.5
2,N#CC1(Nc2ccccc2)CCN(CCc2ccccc2)CC1,30.7

# From PubChem BioAssay AID853 (Columbia University Molecular Screening Center, 2007)
